Measurements reported in paper PMC10450504.
Results are given in words; binding and its absence hold for the method and conditions named. In cells and extracts the contact can be indirect. Some results given as binding are weak or reduced against the parent protein; the word gives no strength. For some assays here: Sequences can lack the tags named with a protein.

B1: Juno (Folate receptor 4), endogenous in mouse oocyte oolemma (receptor, UniProt Q9EQF4 20-222)
chain: GDKLLSVCMNSKRHKQEPGPEDELYQECRPWEDNACCTRSTSWEAHLEEPLLFNFSMMHCGLLTPACRKHFIQAICFHECSPNLGPWIQPVVPNGQEEQRVWGVPLCQEDCEDWWRACHSSLTCKSNWLHGWDWSEEKKHCPAHEPCLPFSYHFPTPDDLCEKIWNNTFKASPERRNSGRCLQKWFEPTLSNPNVEVALHFAG
B2: mouse Juno expressed in HEK293T/17 cells (receptor, UniProt Q9EQF4 20-221)
chain: GDKLLSVCMNSKRHKQEPGPEDELYQECRPWEDNACCTRSTSWEAHLEEPLLFNFSMMHCGLLTPACRKHFIQAICFHECSPNLGPWIQPVVPNGQEEQRVWGVPLCQEDCEDWWRACHSSLTCKSNWLHGWDWSEEKKHCPAHEPCLPFSYHFPTPDDLCEKIWNNTFKASPERRNSGRCLQKWFEPTLSNPNVEVALHFA

How the values were obtained:
[1] = molecular target: T1, CD9, endogenous in mouse oocyte oolemma (mouse (endogenous in mouse oocytes)) (UniProt P40240); assay: proximity ligation; Duolink In Situ Red kit on fixed zona-free mouse MII oocytes; pairs of primary antibodies overnight at 4°C, PLUS and MINUS PLA probes; confocal microscopy
T1 sequence: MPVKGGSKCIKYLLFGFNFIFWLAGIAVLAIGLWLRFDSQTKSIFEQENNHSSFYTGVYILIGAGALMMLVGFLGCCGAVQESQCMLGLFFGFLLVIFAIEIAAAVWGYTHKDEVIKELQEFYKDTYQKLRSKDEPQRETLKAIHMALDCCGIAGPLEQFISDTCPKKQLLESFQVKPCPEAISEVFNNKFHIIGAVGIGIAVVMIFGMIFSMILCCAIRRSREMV

[2] = molecular target: T2, mouse CD9-GFP expressed in HEK293T/17 cells (mouse) (UniProt P40240); assay: co-IP; lysate (1% CHAPS, 30 mM Tris-HCl pH 7.5) of HEK293T/17 cells co-transfected with Juno and CD9-GFP; anti-GFP antibody on Protein G magnetic beads overnight at 4°C; Western blot with anti-Juno antibody
T2 sequence: T1 sequence

Row | Binder | binding [1] | binding [2]
1 | B1 | binds | 
2 | B2 |  | binds
